From PubChem BioAssay AID504444 (National Center for Advancing Translational Sciences (NCATS), 2011)
Hit rate of the full screen: of about 360,000 compounds, about 7,500 (2.1%) were called active. This list was built around the results that the source calls inconclusive (neither active nor inactive); the mix of calls is not that of the screen. Calls follow the shape of the dose curve; as a rule, active = well fitted inhibition curve with a large enough effect; inconclusive = small, poorly fitted or top-dose-only effect, or effect the other way; inactive = flat fitted curve, though single readings scatter. Where the call is inconclusive, the potency comes from a doubtful curve fit.

test: Nrf2 qHTS screen for inhibitors; details: A549 ARE-Fluc reporter, luciferase luminescence, 18-24 h; series mostly up to 46 µM; also: nearly all actives have a fitted effect of over 60% in size
Method in brief: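 Nrf2 activity is the BugLite luminescence, read 15 min after reagent at room temperature, following CellTiter-Fluor cytotoxicity readout (30 min, 37C). Compound titrations were applied for 18-24 h to 5000 A549 ARE_Fluc cells/well in 5% FBS OPTI-MEM.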
Potency is read from the fitted curve at half-maximal effect.

Row | Structure (SMILES) | Potency
1 | COc1ccc(CNc2nc(-c3ccco3)nn2C(=O)c2ccccc2Cl)cc1 | inconclusive: 29.1 µM [activator, single point]
2 | Cc1ccc(NS(=O)(=O)c2ccc(NC(=O)c3ccc(Br)o3)cc2)c(C)c1 | inconclusive: 16.4 µM [falling, single point]
3 | COCc1nnc(NC(=O)c2ccc(S(=O)(=O)N3CCCc4ccccc43)cc2)o1 | inactive
4 | COc1ccc2nc(NC(=O)Nc3ccccc3OC)sc2c1 | inconclusive: 16.4 µM [activator, partial curve]
5 | Cc1ccc(OCC(=O)OCc2cc(=O)n3nc(-c4cccs4)sc3n2)cc1 | inconclusive: 29.1 µM [activator, single point]
6 | O=C(/C=C/c1ccc2c(c1)OCO2)Nc1nc(-c2ccccc2)cs1 | inconclusive: 23.1 µM [falling, partial curve, poor fit]
7 | COc1ccccc1CNC(=O)CCCn1nc(C)c2sc3ccccc3c2c1=O | inactive
8 | C=CCn1c(NCc2ccccc2O)nc2ccccc21 | inactive
9 | CCOc1ccc(NC(=NCc2ccc3c(c2)OCO3)SC2CC(=O)N(c3ccccc3)C2=O)cc1 (configuration not stated) | inactive
10 | Cc1ccccc1OCC(=O)Nc1ccc2nc(SCC(=O)N(C)c3ccccc3)sc2c1 | inconclusive: 14.6 µM [falling, partial curve]
11 | CC[C@]12c3[nH]c4cc(-c5ccco5)ccc4c3CCN1C(=O)[C@@H](CC(=O)NCCC1=CCCCC1)C[C@@H]2C(=O)N1CCN(C(=O)C2CC2)CC1 | inconclusive: 16.4 µM [falling, single point]
12 | COc1ccc(C2=NOC(Cn3nc(C(=O)NCc4cccs4)cc3-c3ccccc3)C2)cc1 (configuration not stated) | inactive
13 | COc1ccc(C(=O)NCCSc2ccccc2)cc1OC | inconclusive: 2.31 µM [activator, full curve]
14 | CC(C)(C)OC(=O)N1CCC(c2c(C(=O)N3CCN(c4ccc(Cl)cc4)CC3)cnn2-c2ccc(F)cc2F)CC1 | inconclusive: 29.1 µM [falling, single point]
15 | COC(=O)c1ccc2c(c1O)C(=O)c1ccccc1C2=O | active: 3.26 µM
16 | COc1cc(-c2ccc3ncnc(NCc4nc(C)cs4)c3c2)cc(OC)c1OC | inconclusive: 3.26 µM [falling, partial curve, poor fit]
17 | COC(=O)c1nc(NC(=O)c2ccccc2Br)n[nH]1 | inconclusive: 6.51 µM [falling, partial curve, poor fit]
18 | CCc1ccc(CNc2ccc(N3CCN(C(C)=O)CC3)cc2)cc1 | active: 16.4 µM
19 | CCCOc1nc2c(c(=O)n(C)c(=O)n2C)n1Cc1cccc2ccccc12 | active: 18.4 µM
20 | COc1ccc(CNC(=O)C2CCN(C(=O)c3ccc(-n4ccc5ccccc54)s3)CC2)cc1 | active: 20.6 µM
21 | COC(=O)c1ccc(NC(=O)CSc2cn(CC(=O)N3CCCCCC3)c3ccccc23)cc1 | inconclusive: 29.1 µM [falling, single point]

Row | Structure (SMILES) | Potency
22 | O=C(NCc1ccco1)C1CCCN1C(=O)Nc1ccccc1 (configuration not stated) | inconclusive: 2.91 µM [falling, partial curve, poor fit]
23 | Cc1cc(OCC(=O)N(C)Cc2ccccc2)ccc1Cl | inconclusive: 14.6 µM [activator, partial curve]
24 | CCn1c(=O)c(C(=O)NCCNCCO)c(O)c2ccccc21 | inconclusive: 29.1 µM [activator, single point]
25 | CCOC(=O)C1CCCCN1C(=O)/C(=C/c1ccc(OC)cc1)c1ccc(OC)c(OC)c1 (configuration not stated) | inactive
26 | O=C1OC(CO)CN1Cc1ccccc1 (configuration not stated) | inactive
27 | O=C(COc1ccccc1Cl)OCc1cc(=O)n2nc(C3CC3)sc2n1 | inconclusive: 18.4 µM [activator, single point]
28 | N#Cc1nc(-c2ccco2)oc1N1CCN(c2ccccc2)CC1 | inconclusive: 1.16 µM [falling, full curve, poor fit]
29 | COc1ccc(/C=C2\SC(=S)N(CCC(=O)NC3C=CS(=O)(=O)C3)C2=O)cc1 (configuration not stated) | inconclusive: 14.6 µM [falling, partial curve, poor fit]
30 | CCOc1ccc(CNC(=O)CCS(=O)(=O)c2cc3c(cc2Cl)NC(=O)CO3)cc1OC | inconclusive: 32.6 µM [activator, single point]
31 | COc1ccc(OC)c(C2(O)CSC(=Nc3cccnc3)N2Cc2ccco2)c1 (configuration not stated) | inconclusive: 29.1 µM [falling, single point]
32 | Cc1ccc(-c2nnc(SCC(C)C)n2C)cc1 | inconclusive: 2.59 µM [activator, partial curve]
33 | Cc1nn(-c2ccc(F)cc2)c(-n2cccc2)c1C(=O)NCCCN1CCN(c2ccccc2F)CC1 | inconclusive: 32.6 µM [falling, single point]
34 | COc1ccc(OC)c(/C=N/NC(=O)c2cc3c(OC)cc(OC)cc3[nH]2)c1 | inconclusive: 10.3 µM [falling, partial curve, poor fit]
35 | O=C1CC(Nc2ccc3ccccc3c2)C(=O)N1Cc1ccccc1 (configuration not stated) | inconclusive: 29.1 µM [activator, single point]
36 | NNc1cccc(C=Cc2ccccc2)cc1=O | inconclusive: 29.1 µM [activator, partial curve, poor fit]
37 | O=C(CSc1ncccn1)NCc1ccc(Cl)cc1 | inconclusive: 29.1 µM [activator, single point]
38 | COc1cccc(NC(=O)CCc2c(C)nc3c4cccnc4nn3c2C)c1 | inconclusive: 7.31 µM [falling, partial curve]
39 | COc1ccc(C2c3ccsc3CCN2C(=O)NC(C)(C)C)cc1 (configuration not stated) | inconclusive: 2.31 µM [falling, partial curve, poor fit]
40 | Cc1ccc(N2C(=O)[C@@H]3[C@H](C2=O)[C@H]2C=C(C(=O)c4ccccc4)C=CN2[C@@H]3C(=O)c2ccc(Cl)cc2)cc1 | inactive
41 | Cn1nnnc1Sc1ncnc2scc(-c3ccc4c(=O)ccoc4c3)c12 | active: 16.4 µM
42 | C/C(=N\N1CCN(c2ccccc2)CC1)c1ccc(O)cc1 | inconclusive: 20.6 µM [activator, single point]

In a second layout: three of the compounds above

| Row | Structure (SMILES) | Potency |
| --- | --- | --- |
| 8 | C=CCn1c(NCc2ccccc2O)nc2ccccc21 | inactive |
| 14 | CC(C)(C)OC(=O)N1CCC(c2c(C(=O)N3CCN(c4ccc(Cl)cc4)CC3)cnn2-c2ccc(F)cc2F)CC1 | inconclusive: 29.1 µM [falling, single point] |
| 32 | Cc1ccc(-c2nnc(SCC(C)C)n2C)cc1 | inconclusive: 2.59 µM [activator, partial curve] |
